# Source: PubChem BioAssay AID248 (DTP/NCI, 2004)
# The list is a part of this screen's results and no random one: it is rich in T/C values a quarter to a half above the control, in often repeated tests (any T/C) and in doses without a T/C. Other doses and runs of a compound stand elsewhere. T/C: endpoint of the treated group in % of that of the vehicle group. Some doses have a count of surviving animals in place of a T/C: the source holds a T/C of zero for them, seemingly a mark for toxic or unscored doses. Some doses without a T/C left all or most animals alive at the check, yet need not have been tolerated: survival well below the control is almost never listed, so the zero probably covers shortened survival too. Survivors were counted at the toxicity check, usually on the fifth day, unless a day is given; later deaths do not show. Schedule codes are those of the source, taken here to give the interval after Q, in days (D) or hours (H), and the number of doses after X. Some molecules as drawn cover several salts, stereoisomers or complexes of the source; a dose is that of the sample tested. Some schedule codes hold Z or #, which are not explained here. Where survival is the endpoint, this PubChem deposit counts one and a half times the control or more as active, and values a quarter to a half above the control carry no call in these data; other NCI protocols may use other cut-offs. Some T/C values carry the count of animals alive at the toxicity check (mostly the fifth day); where none is given, no animal had died by that day. Some entries hold several experiments; the values are given in rising order.
# Tested on: L1210 leukemia ip in BDF1 mice, survival T/C
# Assay: NCI In Vivo Anticancer Drug Screen. Data for tumor model L1210 Leukemia (intraperitoneal) in B6D2F1 (BDF1) mice
# Conditions: T/C endpoint: mean survival time, higher T/C = longer survival
# [1] = dose: 200.0 mg/kg/injection, schedule: Q01DX009 (ip), vehicle: Klucel (hydroxypropylcellulose) (HPC)
# [2] = dose: 400.0 mg/kg/injection, schedule: Q01DX009 (ip), vehicle: saline with Tween-80
# [3] = dose: 400.0 mg/kg/injection, schedule: Q04DX002 (ip), vehicle: Klucel (hydroxypropylcellulose) (HPC)
# [4] = dose: 200.0 mg/kg/injection, schedule: Q04DX003 (ip), vehicle: saline with Tween-80
# [5] = dose: 400.0 mg/kg/injection, schedule: Q01DX001 (ip), vehicle: Klucel (hydroxypropylcellulose) (HPC)
# [6] = dose: 25.0 mg/kg/injection, schedule: Q01DX009 (ip), vehicle: saline
# [7] = dose: 100.0 mg/kg/injection, schedule: Q01DX009 (ip), vehicle: saline
# [8] = dose: 400.0 mg/kg/injection, schedule: Q01DX009 (ip), vehicle: Klucel (hydroxypropylcellulose) (HPC)
# [9] = dose: 200.0 mg/kg/injection, schedule: Q01DX009 (ip), vehicle: saline with Tween-80
# [10] = dose: 200.0 mg/kg/injection, schedule: Q01DX001 (ip), vehicle: saline
# [11] = dose: 400.0 mg/kg/injection, schedule: Q01DX001 (ip), vehicle: saline
# [12] = dose: 300.0 mg/kg/injection, schedule: Q04DX003 (ip), vehicle: saline with Tween-80
structure (smiles),measurement,setting,value
O=[N+]([O-])/C=C/c1ccc([N+](=O)[O-])cc1,survivor count,"dose: 50.0 mg/kg/injection, schedule: Q01DX005 (ip), vehicle: saline with Tween-80",3 of 7
same,survivor count,"dose: 100.0 mg/kg/injection, schedule: Q01DX005 (ip), vehicle: saline with Tween-80",0 of 7
same,survivor count,"dose: 200.0 mg/kg/injection, schedule: Q01DX005 (ip), vehicle: saline with Tween-80",0 of 7
same,survivor count,[1],1 of 6
same,survivor count,"dose: 400.0 mg/kg/injection, schedule: Q01DX005 (ip), vehicle: saline with Tween-80",1 of 7
same,survivor count,"dose: 400.0 mg/kg/injection, schedule: Q04DX003 (ip), vehicle: Klucel (hydroxypropylcellulose) (HPC)",3 of 6
O=c1[nH][nH]c(=O)n1O,survivor count,"dose: 200.0 mg/kg/injection, schedule: Q01DX009 (ip), vehicle: acetone",6 of 6
same,survivor count,[2],6 of 6
O=C1c2ccccc2-c2cc(-c3ccccc3)cc(-c3ccccc3)c21,survivor count,"dose: 200.0 mg/kg/injection, schedule: Q04DX003 (ip), vehicle: Klucel (hydroxypropylcellulose) (HPC)",6 of 6
COc1cc(/C=N/N=C(N)N)cc(I)c1O,survivor count,"dose: 120.0 mg/kg/injection, schedule: Q01DX Z (ip), vehicle: carboxymethylcellulose (CMC)",1 of 6
same,T/C,"dose: 240.0 mg/kg/injection, schedule: Q01DX Z (oral), vehicle: carboxymethylcellulose (CMC)",125 % of control
CC(C)OC(=O)Nc1ccc(Br)cc1,survivor count,[3],3 of 3
NCCNc1ncnc2c1ncn2C1OC(CO)C(O)C1O (centres undefined),survivor count,"dose: 200.0 mg/kg/injection, schedule: Q01DX005 (ip), vehicle: saline",1 of 6
Cc1ccc(Cl)cc1NC(=O)Nc1cccc2ccc(O)cc12,survivor count,[4],6 of 6
CCNCCNc1ccc(CO)c2sc3cc(Cl)ccc3c(=O)c12,survivor count,"dose: 100.0 mg/kg/injection, schedule: Q01DX009 (ip), vehicle: Klucel (hydroxypropylcellulose) (HPC)",6 of 6
same,survivor count,[1],0 of 6
CC1(C)N=C(N)N=C(N)N1c1cccc(OCCOc2ccccc2N)c1,survivor count,"dose: 100.0 mg/kg/injection, schedule: Q01DX001 (ip), vehicle: Klucel (hydroxypropylcellulose) (HPC)",0 of 3
same,survivor count,"dose: 200.0 mg/kg/injection, schedule: Q01DX001 (ip), vehicle: Klucel (hydroxypropylcellulose) (HPC)",0 of 3
same,survivor count,[5],0 of 3
Cc1cc([N+](=O)[O-])ccn1,survivor count,[2],0 of 6
COc1ccc2nc3ccccc3c(N)c2c1,survivor count,"dose: 80.0 mg/kg/injection, schedule: Q01DX001 (ip), vehicle: saline",0 of 6
Nc1nc2nc(CC(=O)C(=O)O)c(=O)[nH]c2c(=O)[nH]1,survivor count,[6],4 of 6
same,survivor count,[7],0 of 6
same,survivor count,"dose: 200.0 mg/kg/injection, schedule: Q04DX003 (ip), vehicle: saline",2 of 6
same,survivor count,"dose: 400.0 mg/kg/injection, schedule: Q04DX003 (ip), vehicle: saline",0 of 6
O=C(Nc1ccc(C2=NCCCN2)cc1)N1CCN(C(=O)Nc2ccc(C3=NCCCN3)cc2)CC1,survivor count,"dose: 40.0 mg/kg/injection, schedule: Q01DX Z (ip), vehicle: water",1 of 6
same,survivor count,"dose: 80.0 mg/kg/injection, schedule: Q01DX Z (ip), vehicle: water",0 of 6
OC1(C#CI)CCCCC1,survivor count,[8],6 of 6
Cc1ccc(S(=O)(=O)OCC(COS(=O)(=O)c2ccc(C)cc2)(COS(=O)(=O)c2ccc(C)cc2)COS(=O)(=O)c2ccc(C)cc2)cc1,survivor count,"dose: 200.0 mg/kg/injection, schedule: Q04DX002 (ip), vehicle: Klucel (hydroxypropylcellulose) (HPC)",1 of 3
Clc1ccc(C#Cc2ccc(Cl)cc2)cc1,survivor count,"dose: 25.0 mg/kg/injection, schedule: Q01DX009 (ip), vehicle: saline with Tween-80",3 of 6
same,survivor count,"dose: 100.0 mg/kg/injection, schedule: Q01DX009 (ip), vehicle: saline with Tween-80",2 of 6
same,survivor count,[9],0 of 6
same,survivor count,[2],0 of 6
CC(=O)OCC1OC(n2cc(F)c(=O)[nH]c2=O)CC1OC(C)=O (centres undefined),T/C,[6],125 % of control
same,T/C,"dose: 50.0 mg/kg/injection, schedule: Q01DX009 (ip), vehicle: saline",125 % of control
same,T/C,[7],127 and 129 % of control [5 of 6 alive]
same,T/C,"dose: 200.0 mg/kg/injection, schedule: Q01DX009 (ip), vehicle: saline",132 % of control
same,T/C,"dose: 400.0 mg/kg/injection, schedule: Q01DX009 (ip), vehicle: saline",146 % of control
C=CCNC(=O)N(CC=C)N=O,survivor count,"dose: 250.0 mg/kg/injection, schedule: Q01DX001 (ip), vehicle: carboxymethylcellulose (CMC)",1 of 6
same,survivor count,"dose: 375.0 mg/kg/injection, schedule: Q01DX001 (ip), vehicle: carboxymethylcellulose (CMC)",0 of 6
same,survivor count,"dose: 500.0 mg/kg/injection, schedule: Q01DX001 (ip), vehicle: carboxymethylcellulose (CMC)",0 of 6
same,survivor count,"dose: 750.0 mg/kg/injection, schedule: Q01DX001 (ip), vehicle: carboxymethylcellulose (CMC)",0 of 6
OC(CN1CCCC1)c1cc2cc(Br)ccc2s1 (centres undefined),survivor count,[10],2 of 6
same,survivor count,[11],0 of 6
CC(C)(C)NNC(=O)c1ccccc1,survivor count,"dose: 150.0 mg/kg/injection, schedule: Q04DX003 (ip), vehicle: saline with Tween-80",3 of 6
same,survivor count,[12],0 of 6
Cc1cc(Cl)ccc1OCC(=O)Oc1c(Cl)c(Cl)c(Cl)c(Cl)c1Cl,survivor count,[3],3 of 3
CCN(CC)CC[N-]CCN(CC)CC.[Cl][Pt],survivor count,[10],0 of 6
same,survivor count,[11],0 of 6
O=C(/C=N\O)c1ccncc1,survivor count,[8],0 of 6
CC(C)CC(NC(=O)CNC(=O)OCc1ccccc1)C(=O)NC(Cc1ccccc1)C(=O)CCl (centres undefined),survivor count,"dose: 150.0 mg/kg/injection, schedule: Q04DX003 (ip), vehicle: Klucel (hydroxypropylcellulose) (HPC)",5 of 6
same,survivor count,"dose: 300.0 mg/kg/injection, schedule: Q04DX003 (ip), vehicle: Klucel (hydroxypropylcellulose) (HPC)",0 of 6
same,survivor count,[5],2 of 6
C[C@]12C(=O)OC(=O)[C@H]1[C@H]1CC[C@@H]2C1,survivor count,"dose: 400.0 mg/kg/injection, schedule: Q01DX009 (ip), vehicle: acetone",0 of 6
CC(Br)C(=O)Nc1ccc(C(=O)O)c(O)c1 (centres undefined),survivor count,[9],2 of 6
same,survivor count,[2],0 of 6
COc1ccc(Cc2ccc(OC)c(OC)c2)cc1OC,T/C,"dose: 100.0 mg/kg/injection, schedule: Q04DX003 (ip), vehicle: acetone",127 % of control
CCCCC(=O)N1CCCCCC1,survivor count,"dose: 400.0 mg/kg/injection, schedule: Q04DX002 (ip), vehicle: saline with Tween-80",1 of 3
CCN(CC)CCCC(C)Nc1cccc2c1C(=O)c1c(c(O)c3ccccc3c1O)C2=O (centres undefined),survivor count,"dose: 100.0 mg/kg/injection, schedule: Q04DX002 (ip), vehicle: saline",3 of 3
same,survivor count,"dose: 200.0 mg/kg/injection, schedule: Q04DX002 (ip), vehicle: saline",0 of 3
same,survivor count,"dose: 400.0 mg/kg/injection, schedule: Q04DX002 (ip), vehicle: saline",0 of 3
Nc1nc(N)c2cc(CNc3ccc(C(=O)NC(CCCC(=O)O)C(=O)O)cc3)cnc2n1 (centres undefined),T/C,"dose: 50.0 mg/kg/injection, schedule: Q04DX003 (ip), vehicle: saline with Tween-80",139 % of control
same,T/C,[4],136 % of control
same,T/C,[12],131 % of control
